Data taken from article PMC7914255.
No constants are given. Whether binding was seen depends on the method and setting. In cells and extracts the contact can be indirect. These calls come from enrichment with a bait or labelling near it, and not all partners need be listed. Sequences can lack the tags named with a protein.

Protein sequences, listed by entry. Tags and fused reporters are not part of them.
UniProt Q9BXL6: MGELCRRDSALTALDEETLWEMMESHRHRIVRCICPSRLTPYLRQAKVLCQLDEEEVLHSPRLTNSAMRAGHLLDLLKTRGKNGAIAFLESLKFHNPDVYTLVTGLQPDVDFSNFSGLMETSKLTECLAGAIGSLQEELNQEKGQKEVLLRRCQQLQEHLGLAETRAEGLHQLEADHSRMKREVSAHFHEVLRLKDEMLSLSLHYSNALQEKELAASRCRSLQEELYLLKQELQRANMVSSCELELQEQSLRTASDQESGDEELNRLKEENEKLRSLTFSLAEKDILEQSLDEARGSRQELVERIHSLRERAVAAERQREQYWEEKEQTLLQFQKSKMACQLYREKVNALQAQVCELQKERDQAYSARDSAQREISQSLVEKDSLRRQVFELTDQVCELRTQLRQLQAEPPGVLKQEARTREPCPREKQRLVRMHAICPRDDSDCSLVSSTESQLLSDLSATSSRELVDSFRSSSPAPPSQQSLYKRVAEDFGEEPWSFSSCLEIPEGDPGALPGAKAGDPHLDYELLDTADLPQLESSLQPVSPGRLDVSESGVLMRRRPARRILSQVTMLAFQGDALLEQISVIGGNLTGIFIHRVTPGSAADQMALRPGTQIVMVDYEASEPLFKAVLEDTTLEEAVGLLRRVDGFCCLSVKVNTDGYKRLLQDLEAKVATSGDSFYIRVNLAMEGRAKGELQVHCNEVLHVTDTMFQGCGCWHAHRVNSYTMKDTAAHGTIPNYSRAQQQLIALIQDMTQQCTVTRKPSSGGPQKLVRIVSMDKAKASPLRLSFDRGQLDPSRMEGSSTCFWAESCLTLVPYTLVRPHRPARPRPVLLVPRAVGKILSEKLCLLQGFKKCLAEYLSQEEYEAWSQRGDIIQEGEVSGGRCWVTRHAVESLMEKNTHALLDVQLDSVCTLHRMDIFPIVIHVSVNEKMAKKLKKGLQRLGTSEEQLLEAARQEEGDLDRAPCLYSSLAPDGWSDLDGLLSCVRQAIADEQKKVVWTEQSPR

Target: T1, Flag-tagged TRIM41 (full length) (mouse) (UniProt Q5NCC3)
T1 sequence: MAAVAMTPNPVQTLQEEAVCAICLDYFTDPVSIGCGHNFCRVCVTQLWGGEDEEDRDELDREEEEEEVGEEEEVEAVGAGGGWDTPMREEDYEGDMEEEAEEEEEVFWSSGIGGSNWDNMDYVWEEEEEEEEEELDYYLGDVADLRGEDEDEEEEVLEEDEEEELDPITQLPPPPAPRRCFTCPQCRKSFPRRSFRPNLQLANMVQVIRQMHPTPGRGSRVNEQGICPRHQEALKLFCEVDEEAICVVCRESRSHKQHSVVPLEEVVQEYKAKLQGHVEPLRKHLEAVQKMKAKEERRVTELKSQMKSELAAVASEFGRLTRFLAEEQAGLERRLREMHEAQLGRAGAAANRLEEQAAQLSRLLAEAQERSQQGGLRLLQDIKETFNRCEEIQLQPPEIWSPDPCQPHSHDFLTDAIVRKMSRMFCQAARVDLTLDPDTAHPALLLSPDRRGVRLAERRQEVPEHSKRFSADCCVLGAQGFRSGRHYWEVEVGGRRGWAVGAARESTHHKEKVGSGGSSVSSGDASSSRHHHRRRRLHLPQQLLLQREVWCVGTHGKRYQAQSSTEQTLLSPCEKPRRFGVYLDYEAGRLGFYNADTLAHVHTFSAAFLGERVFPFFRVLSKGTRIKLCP
Assay: affinity purification with mass spectrometry; Flag-tagged TRIM41 overexpressed in HEK293T cells, immunoprecipitation, then nano-UPLC electrospray tandem MS

binding: binds
Substance: CARD14 (from UniProt Q9BXL6 1-1004)
